Source: publication PMC12406199, “NanoDSF Screening for Anti-tubulin Agents Uncovers New Structure–Activity Insights” (Journal of Medicinal Chemistry, 2025)

Tested on: U87MG
Test: cells
Parameters: MTT viability assay on U87MG glioblastoma cells
Conditions: Homo sapiens, U-87 MG, 72 h
Protocol: Glioblastoma cell culture routines, viability, and proliferation assays were performed as previously described. U87MG cells were maintained in complete MEM media supplemented with 10% FBS and 2 mM L-glutamine (Invitrogen, Paris, France). For cytotoxicity assays, cells were counted and plated in 96-well flat-bottom plates (50,000 cells/mL, 5000 cells per well). After 24 h, the cells were treated with increasing concentrations of the MTAs (0, 1, 5, 10, and 20–40 μM) in a vehicle solution, containing 0.05% DMSO. All concentrations were done in triplicates. The surviving cells were quantified after 72 h by the tetrazolium bromide MTT-assay, according to the manufacturer’s instructions. After cell lysis, the optical density was measured at 600 nm using a Multiskan MS Thermo plate reader (LabSystems, Waltham, MA, USA).

COC(=O)C1=C(C)NC(C)=C(C(=O)OC)C1c1ccccc1[N+](=O)[O-] [NFD, Nifedipine]
IC50: 40.4 ± 6.6 µM
